Test results published in the supplement of paper PMC11237882.
This is one part of the list. Values are worked out from sequencing counts and are noisy.

Biological target: T1, Homer1 EVH1 domain
T1 chain: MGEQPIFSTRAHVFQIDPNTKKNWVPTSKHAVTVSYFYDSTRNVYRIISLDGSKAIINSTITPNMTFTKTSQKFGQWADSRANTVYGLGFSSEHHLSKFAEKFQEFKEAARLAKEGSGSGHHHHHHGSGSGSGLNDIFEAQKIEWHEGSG
Assay: enrichment score (AUC of log2 frequency ratio across FACS sorting rounds) (log2 AUC); higher = stronger enrichment for Homer1 EVH1 binding

Binder	enrichment score
RKLGIVCLLSYLGLATLSVLYELGIIGNNKIRSCGG	2.7
LFMPICATYLLIFVVGAMGNGLTCLVILRHKAMRTP	2.13
VGTATFLRGVLLIIPFTFLTKRLPYCRGNILPHTYC	1.68
ICLSGLGLFILYLFYIVLTLYSSPTEKNNDTQKHQG	2.28
RITSMDARGSTSAISNVHPMSSYMPIVLFLIVYVLW	0.45
GFVPYIGIGTSIMNDYPKHKYEVLFLLGLFVLVHRE	3.39
MESERSKRMGNACIPLKRIAYFLCLLSALLLTEGKK	-1.6
MDFLVLFLFYLASVLMGLVLICVCSKTHSLKGLARG	0.998
PKGVGAIYIRRRPRVRVEALQSGGGQERGMRSGTVP	-0.243
GAGADEGVRRSLSPELREGDPSSSQHLPSTPSSPRV	0.903
YFTIQNPSNVDHYSKLLFPLIFMLANVFYWAYYMYF	0.778
KNAWKNNVFFSWSYFSGWLALPFSILAGFCFLLADM	3.62
LVRDVVSSLRRHRMHEQQFAHPPLLVLNSFGPHGMH	-0.114
LWWRACWFVITPILLIAIFIWSLVQFHRPNYGAIPY	1.14
FTLLPLLTMAYLKGDLRRMWSEPFHSKSSSSRFLEV	1.58
GKGKFKGVGRSYRIAKSAAARRALRSLKAKSTSGSE	2.45
EDAYLILRRHGNLFITLFALMLTAGLPELTSVKDIQ	0.261
TLRYKKLRQPLNYILVNVSFGGFLLCIFSVFPVFVA	0.19
TCTLPLIMFMIGRKWIKSGQKVKKKRWPPERDIHIY	-0.334
ISPEEEYKIACLLMVFVAVSLPTLASNVMSQYSPAI	1.3
LKPAIAEYIVKKAKQRIALQRWQDELNRRKNHKGMI	-0.0596
WRKALRGKVRAAGSRAPPRTRVLGPSLLRLASPYFL	-0.0987

Binder	enrichment score
MKAVLLALLMAGLALQPGTALLCYFCKAQVSNEDCL	0.592
MRLLWGLIWASSFFTLSLQKPRLLLFSPSVVHLEAQ	-1.99
MAESAGASSFFPLVVLLLAGSGGSGPRGVQALLCAY	2.68
QTNGITLINWWAMARVIFEVMLVVVGMIILISYCIR	0.476
GSTRKVFMMRQLAASFVMWTPVWLVMVVVFSKGKIC	1.18
RSLFNSPERAKYLGNLIKGVKRILENPQGLSDPGNY	0.00981
LGLLLACFGGAVLYILTRADWKRPSQAEEQALSMDF	0.0396
LISGVMTSKEIILGLCLLSLVLSMILMVIIRYISRV	-1.6
GKKSISLAGCGTQIFFYVSLLGAECFLLAVMAYDRY	1.25
VWSVLFLPICTTVFIIFSRIDLFHPIQWLSDSFSDL	0.308
FISSYYGINLASAFIILVLIGTWAFLTAGGSCRSLK	2.11
LYTMRRGGLFYATGLCQLCTSVAVFTGALIYAIHAD	2.51
SHKEILQVIQREGLKEIRSGTSPLACLNAMLHTNSR	1.56
KHAVLGLYLLVFLILVGIFILAVSRPRSSPDDLKAL	-3.18
MVLLSLWLIAAALVEVRTSADGQAGNEEMVQIDLPI	-2.44
SNQELRKMGLDFAGFTAHMFIGICLVLLVCFPLLRL	2.47
MAIGNWTEISEFILMSFSSLPTEIQSLLFLTFLTIY	-2.67
VENTKKLLRFNPLDPFVLSIKVFPFLTPILEALNIT	-2.56
PFIVLVTVENELSYVLKVFMSLMSLTAFSYASQYIA	2.3
HLGEKTYHYVPEFRKVSIAATIIYAYAWLVPLALWG	2.02
ECLLRPWFYKILAVVLSIFSVIVVWSECTFFSTTPG	3.35
MEPQLGPEAAALRPGWLALLLWVSALSCSFSLPASS	3.09
